From paper PMC4870365 come the findings set out here.

By UniProt entry, the sequences of proteins in these tests, tags left out.
UniProt P40763: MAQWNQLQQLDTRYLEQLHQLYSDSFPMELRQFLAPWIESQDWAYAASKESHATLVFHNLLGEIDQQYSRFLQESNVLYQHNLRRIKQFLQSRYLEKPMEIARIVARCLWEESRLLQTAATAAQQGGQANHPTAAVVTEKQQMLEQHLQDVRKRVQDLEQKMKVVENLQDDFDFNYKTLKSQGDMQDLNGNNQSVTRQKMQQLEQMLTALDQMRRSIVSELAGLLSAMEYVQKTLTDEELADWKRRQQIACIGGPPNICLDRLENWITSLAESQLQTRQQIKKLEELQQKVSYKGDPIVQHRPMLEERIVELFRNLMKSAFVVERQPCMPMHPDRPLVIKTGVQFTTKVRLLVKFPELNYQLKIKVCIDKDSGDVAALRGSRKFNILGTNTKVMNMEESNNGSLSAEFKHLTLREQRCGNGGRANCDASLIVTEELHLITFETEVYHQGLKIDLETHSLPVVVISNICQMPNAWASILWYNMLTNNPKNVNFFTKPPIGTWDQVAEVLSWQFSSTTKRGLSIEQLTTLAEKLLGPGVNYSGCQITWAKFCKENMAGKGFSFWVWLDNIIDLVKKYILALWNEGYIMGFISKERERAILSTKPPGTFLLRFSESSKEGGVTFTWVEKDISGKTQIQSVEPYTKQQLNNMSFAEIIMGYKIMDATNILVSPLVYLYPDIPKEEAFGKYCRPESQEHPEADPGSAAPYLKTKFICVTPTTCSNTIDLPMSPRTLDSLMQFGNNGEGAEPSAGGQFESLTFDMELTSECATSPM
UniProt P07355: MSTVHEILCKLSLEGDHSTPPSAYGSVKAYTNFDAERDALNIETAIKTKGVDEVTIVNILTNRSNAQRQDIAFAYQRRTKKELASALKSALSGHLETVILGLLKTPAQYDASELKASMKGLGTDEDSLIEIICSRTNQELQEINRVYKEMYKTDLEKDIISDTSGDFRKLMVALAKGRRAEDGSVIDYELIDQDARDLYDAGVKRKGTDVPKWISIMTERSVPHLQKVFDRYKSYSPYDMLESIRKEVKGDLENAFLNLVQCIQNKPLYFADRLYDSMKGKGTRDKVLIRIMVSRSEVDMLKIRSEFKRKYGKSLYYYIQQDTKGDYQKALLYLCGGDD

No constants are given. Whether binding was seen depends on the method and setting. Binding seen in cells or lysates may run through a third protein. Some entries that bind do so weakly or less than the wild type.

The assay has as its target phosphorylated STAT3 (Tyr 705) (human (endogenous in Caco-2)) (UniProt P40763). As to the kind of experiment: co-IP; Caco-2 cells (Annexin A2 (+) or control (+)) lysed with Triton X-100; supernatants incubated with anti-p-Anxa 2 (Tyr 23) or anti-p-STAT3 (Tyr 705) at 4°C overnight, protein A-sepharose beads 2 h at 4°C; western blotting. (Immunoblotting shows a protein as a band on a membrane.)

Take “phosphorylated Annexin A2 (Tyr 23) (from UniProt P07355 1-339)”: the binding entry is “binds”.
